Measurements from publication PMC7862700.
The entries are a selection whose mix differs from that of the whole data set. For part of these data: At the low end of the ranking the order means little. The list shows a part of the results. For part of these data: Construct or isoform of the protein are uncertain.

Columns and labels:
Test in all cases: DAPPL (digital affinity profiling via proximity ligation, sequencing)
Settings in all cases: 10 mM Tris-HCl pH 7.5, 50 mM NaCl, 1 mM DTT, 4% glycerol, room temperature, 30 min; GST-TFs on glutathione beads, 16-mer random dsDNA library, 0.1% …; high values mean tight binding; double strand, one strand shown; scale: fold enrichment (6-mer frequency, TF over GST control)
GABPA = target: T1, GABPA (UniProt Q06546)
T1 sequence: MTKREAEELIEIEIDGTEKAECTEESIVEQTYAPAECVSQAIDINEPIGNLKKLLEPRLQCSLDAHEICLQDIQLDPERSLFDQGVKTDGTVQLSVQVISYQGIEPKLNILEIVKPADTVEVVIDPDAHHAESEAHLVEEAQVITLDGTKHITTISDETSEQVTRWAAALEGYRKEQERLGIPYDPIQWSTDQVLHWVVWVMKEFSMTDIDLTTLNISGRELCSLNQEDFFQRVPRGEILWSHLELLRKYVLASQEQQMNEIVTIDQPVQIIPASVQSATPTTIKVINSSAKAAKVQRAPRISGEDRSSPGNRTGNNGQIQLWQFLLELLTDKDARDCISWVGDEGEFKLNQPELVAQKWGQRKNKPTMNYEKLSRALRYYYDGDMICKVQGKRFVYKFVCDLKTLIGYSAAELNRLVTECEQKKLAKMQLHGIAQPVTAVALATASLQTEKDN

ETS1 = target: T2, ETS1 (UniProt P14921)
T2 sequence: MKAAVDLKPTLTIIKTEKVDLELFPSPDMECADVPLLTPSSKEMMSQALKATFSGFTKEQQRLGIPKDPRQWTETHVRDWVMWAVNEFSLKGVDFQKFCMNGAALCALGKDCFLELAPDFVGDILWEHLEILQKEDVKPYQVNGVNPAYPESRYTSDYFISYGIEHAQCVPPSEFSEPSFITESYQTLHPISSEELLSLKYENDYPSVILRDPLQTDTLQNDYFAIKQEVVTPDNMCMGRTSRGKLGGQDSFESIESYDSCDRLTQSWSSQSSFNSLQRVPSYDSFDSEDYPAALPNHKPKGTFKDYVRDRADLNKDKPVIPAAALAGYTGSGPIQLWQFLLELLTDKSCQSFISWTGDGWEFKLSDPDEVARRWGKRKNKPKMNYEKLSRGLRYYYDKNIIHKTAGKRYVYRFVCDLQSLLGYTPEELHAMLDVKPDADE

SPDEF = target: T3, SPDEF (UniProt O95238)
T3 sequence: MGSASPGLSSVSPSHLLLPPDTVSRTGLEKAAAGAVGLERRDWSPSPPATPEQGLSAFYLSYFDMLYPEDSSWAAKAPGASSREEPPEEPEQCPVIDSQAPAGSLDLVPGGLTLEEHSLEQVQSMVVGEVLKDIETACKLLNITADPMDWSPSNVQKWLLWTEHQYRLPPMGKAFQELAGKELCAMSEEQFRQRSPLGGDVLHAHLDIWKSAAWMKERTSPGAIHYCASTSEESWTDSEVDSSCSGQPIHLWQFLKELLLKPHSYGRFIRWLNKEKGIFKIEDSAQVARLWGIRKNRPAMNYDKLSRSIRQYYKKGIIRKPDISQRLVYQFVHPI

Sequence	binding signal (GABPA)	binding signal (ETS1)	binding signal (SPDEF)
GATCAT	0.972	0.97	0.965
TTAGAG	0.893	0.869	0.886
GATAAA	0.92	0.997	0.988
GTTTGC	1.04	1.06	0.961
CTAGGA	0.899	0.87	0.968
TCGTTA	0.867	0.983	0.885
CCAGCA	0.932	0.887	0.86
AGAATG	0.976	0.984	0.984
TCGCGG	1.07	1.02	1.01
CGCAAA	0.978	1.06	0.991
GAAGGT	0.926	0.855	0.847
AGCTAG	0.975	1.09	0.87
TCGCTG	1.01	1.08	0.97
CCAGCT	0.9	0.939	0.851
TCAGAC	0.946	0.888	0.879
AGTACC	0.869	0.926	1.01
GCGACG	0.998	0.885	0.784

Sequence	binding signal (GABPA)	binding signal (ETS1)	binding signal (SPDEF)
CGTTGG	0.889	0.95	0.983
CACCGC	1.06	0.974	0.883
TCCGAG	0.924	0.923	0.955
GCGCAC	0.89	0.851	0.834
ATACTC	1.48	1.27	1.32
CGGACC	0.764	0.838	0.997
GTCTAG	0.878	0.862	0.723
GCCATT	0.962	0.982	0.834
TAACTA	1.46	1.3	1.26
GCAAAG	0.912	0.949	0.923
GCTAAG	0.954	1.01	1.11
GGTCCA	0.876	0.912	0.847
CCCAGA	0.87	0.871	0.858
AAGGGA	0.913	0.905	0.898
GTGGCC	1.06	1.09	0.871
AGAATC	0.916	0.964	0.936
CCGACT	1.48	1.36	1.45

Copied from the listing (6 entries):
Sequence	binding signal (GABPA)	binding signal (ETS1)	binding signal (SPDEF)
GCTAAG	0.954	1.01	1.11
GGTCCA	0.876	0.912	0.847
CCCAGA	0.87	0.871	0.858
AAGGGA	0.913	0.905	0.898
GTGGCC	1.06	1.09	0.871
AGAATC	0.916	0.964	0.936
